Results deposited as PubChem BioAssay AID504764 (Drosophila RNAi Screening Center, 2011).
The screen tested about 22,000 reagents; below is an unselected part of those with a known target gene and a result. In the full data, 403 (1.9%) got an active call. 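Unnormalised raw counts per well; ratio z-scores behind the hit calls and whether each hit raises or lowers signal are not deposited.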 Reagents against one gene are numbered here. A plus sign joins genes that one reagent is predicted to hit. The record does not give: the amount of reagent.

Purpose: 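Genome-wide screen for regulators of Notch-driven gene expression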 (primary screen)
System: Drosophila Kc167 cells
Reagent: long dsRNA against Drosophila genes
Time to read-out: about 5 days (4 days dsRNA, then 24 h after transfection)
Treatment: transfection of constitutively active membrane-tethered Notch lacking the extracellular domain, read 24 h later
Measurement: 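Firefly luciferase from an E(spl)m3 reporter with active Notch, plus control-promoter and uninduced reporter wells for normalisation; unnormalised counts, duplicate wells a and b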
Reading the numbers: induced reporter light, run 1, well a and induced reporter light, run 1, well b: higher = more light from the Notch target reporter with active Notch; control promoter light, run 1, well a and control promoter light, run 1, well b: higher = more light from the viral control promoter (cell number, transfection, viability); uninduced reporter light, run 1, well a: higher = more light from the Notch target reporter without active Notch
Hit rule: 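Wells with low control signal or poorly matching duplicates excluded; duplicates averaged; per source plate, z beyond ±2 for induced/control log2 ratio or beyond ±1.8 for induced/uninduced marks a hit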
Meaning of the calls: active = modifier hit (raised or lowered Notch signal); inactive = not a hit

no.	Gene	reagent no.	induced reporter light, run 1, well a	induced reporter light, run 1, well b	control promoter light, run 1, well a	control promoter light, run 1, well b	uninduced reporter light, run 1, well a	Call
1	Fcp3C	1	95195	1.11e5	1.35e5	1.54e5	7575	inactive
2	CG14391	1	50395	57990	61495	54505	2020	inactive
3	CG3092	1	1.69e5	1.80e5	1.89e5	1.84e5	14685	inactive
4	Or7a	1	1.62e5	1.57e5	2.69e5	2.49e5	11642	inactive
5	CG34319 (retired record)	1	17185	16600	18585	16988	4820	inactive
6	Sb	1	2.10e5	2.41e5	1.98e5	2.08e5	18880	inactive
7	Cyp4d1	1	50805	65600	85440	70825	5915	inactive
8	Cyp4d1	2	1.03e5	85265	1.96e5	2.08e5	7120	inactive
9	Bulli	1	2.43e5	1.88e5	2.88e5	2.70e5	16845	inactive
10	Ilp2	1	1.21e5	1.35e5	94830	66260	12920	inactive
11	betaGlu	1	1.77e5	1.87e5	2.40e5	2.51e5	14620	inactive
12	L	1	59850	69610	92005	88140	7182	inactive
13	L	2	72580	78680	1.05e5	88930	7770	inactive
14	Eig71Ek	1	1.66e5	1.62e5	1.98e5	1.62e5	10175	inactive
15	emb	1	74865	61070	54500	51970	8388	active
16	imd	1	1.17e5	1.05e5	2.01e5	2.21e5	9865	inactive
17	CG30373	1	87745	80965	1.03e5	98710	4285	inactive
18	CG13850	1	1.27e5	1.42e5	1.96e5	2.34e5	14430	inactive
19	b6	1	1.01e5	1.02e5	2.09e5	1.62e5	9465	inactive
20	CG5726	1	54805	48450	90645	1.18e5	6020	inactive
21	peng	1	47870	51470	52405	79485	9155	inactive
22	PGAP2	1	1.20e5	1.16e5	1.15e5	1.26e5	9390	inactive
23	Sgp	1	1.88e5	2.48e5	2.05e5	2.11e5	22050	inactive
24	CR31292	1	1.41e5	1.51e5	1.60e5	1.88e5	10325	inactive
25	CG13895	1	1.68e5	1.16e5	2.13e5	2.10e5	7880	inactive
26	CG15719	1	98010	1.11e5	1.73e5	1.49e5	7705	inactive
27	aus	1	57310	43310	74365	41475	6170	inactive
28	aus	2	45330	38155	42950	33270	7910	inactive
29	aus	3	145	110	260	340	70	inactive
30	jtb	1	32165	32825	53900	55025	3432	inactive
31	AIMP1	1	2.01e5	1.69e5	1.91e5	2.05e5	14250	inactive
32	Cpr78Cb	1	1.47e5	1.15e5	1.15e5	1.25e5	6375	inactive
33	RhoU	1	69970	83160	77660	53595	4338	inactive
34	RhoU	2	1.18e5	1.38e5	2.32e5	2.46e5	9245	inactive
35	RhoU	3	1.38e5	1.16e5	1.69e5	1.61e5	7578	inactive
36	RhoU	4						inactive
37	Tbce	1	2.10e5	2.34e5	2.08e5	2.20e5	15480	inactive
38	CG5973	1	98810	99065	99870	89085	7075	inactive
39	CG17786	1	1.60e5	1.44e5	2.02e5	2.36e5	15255	inactive
40	CG8319	1	74135	73610	72340	59880	5435	inactive
41	Mf	1	1.87e5	2.23e5	1.84e5	1.86e5	15645	inactive
42	Vps16B	1	1.16e5	1.26e5	1.75e5	1.53e5	11340	inactive
43	Pez	1	2.28e5	1.39e5	2.02e5	1.88e5	10682	inactive
44	CG15412	1	1.60e5	1.67e5	2.18e5	2.45e5	12940	inactive
45	CG12935 + Nop10	1	1.56e5	1.49e5	1.92e5	1.55e5	14635	inactive
46	Marc	1	1.72e5	1.50e5	2.16e5	2.18e5	14635	inactive
47	l(1)G0469	1	1.92e5	1.99e5	2.66e5	2.61e5	14410	inactive
48	l(1)G0469	2	81785	70630	90645	75140	11185	inactive
49	twit	1	2.24e5	2.46e5	1.76e5	1.71e5	16095	inactive
50	CG31769	1	1.29e5	91080	1.24e5	94210	11270	inactive

Sorted by “induced reporter light, run 1, well a” (highest first): 8 of the entries above.
Gene	reagent no.	induced reporter light, run 1, well a	induced reporter light, run 1, well b	control promoter light, run 1, well a	control promoter light, run 1, well b	uninduced reporter light, run 1, well a	Call
Pez	1	2.28e5	1.39e5	2.02e5	1.88e5	10682	inactive
twit	1	2.24e5	2.46e5	1.76e5	1.71e5	16095	inactive
l(1)G0469	1	1.92e5	1.99e5	2.66e5	2.61e5	14410	inactive
Marc	1	1.72e5	1.50e5	2.16e5	2.18e5	14635	inactive
CG15412	1	1.60e5	1.67e5	2.18e5	2.45e5	12940	inactive
CG12935 + Nop10	1	1.56e5	1.49e5	1.92e5	1.55e5	14635	inactive
CG31769	1	1.29e5	91080	1.24e5	94210	11270	inactive
l(1)G0469	2	81785	70630	90645	75140	11185	inactive
